Results from publication PMC8001828.
These are yes or no findings as the source states them, for the method shown. Binding seen in cells or lysates may run through a third protein. These calls come from enrichment with a bait or labelling near it, and not all partners need be listed.

Amino acid sequences for entries named in this document (tags omitted).
UniProt Q96KR1: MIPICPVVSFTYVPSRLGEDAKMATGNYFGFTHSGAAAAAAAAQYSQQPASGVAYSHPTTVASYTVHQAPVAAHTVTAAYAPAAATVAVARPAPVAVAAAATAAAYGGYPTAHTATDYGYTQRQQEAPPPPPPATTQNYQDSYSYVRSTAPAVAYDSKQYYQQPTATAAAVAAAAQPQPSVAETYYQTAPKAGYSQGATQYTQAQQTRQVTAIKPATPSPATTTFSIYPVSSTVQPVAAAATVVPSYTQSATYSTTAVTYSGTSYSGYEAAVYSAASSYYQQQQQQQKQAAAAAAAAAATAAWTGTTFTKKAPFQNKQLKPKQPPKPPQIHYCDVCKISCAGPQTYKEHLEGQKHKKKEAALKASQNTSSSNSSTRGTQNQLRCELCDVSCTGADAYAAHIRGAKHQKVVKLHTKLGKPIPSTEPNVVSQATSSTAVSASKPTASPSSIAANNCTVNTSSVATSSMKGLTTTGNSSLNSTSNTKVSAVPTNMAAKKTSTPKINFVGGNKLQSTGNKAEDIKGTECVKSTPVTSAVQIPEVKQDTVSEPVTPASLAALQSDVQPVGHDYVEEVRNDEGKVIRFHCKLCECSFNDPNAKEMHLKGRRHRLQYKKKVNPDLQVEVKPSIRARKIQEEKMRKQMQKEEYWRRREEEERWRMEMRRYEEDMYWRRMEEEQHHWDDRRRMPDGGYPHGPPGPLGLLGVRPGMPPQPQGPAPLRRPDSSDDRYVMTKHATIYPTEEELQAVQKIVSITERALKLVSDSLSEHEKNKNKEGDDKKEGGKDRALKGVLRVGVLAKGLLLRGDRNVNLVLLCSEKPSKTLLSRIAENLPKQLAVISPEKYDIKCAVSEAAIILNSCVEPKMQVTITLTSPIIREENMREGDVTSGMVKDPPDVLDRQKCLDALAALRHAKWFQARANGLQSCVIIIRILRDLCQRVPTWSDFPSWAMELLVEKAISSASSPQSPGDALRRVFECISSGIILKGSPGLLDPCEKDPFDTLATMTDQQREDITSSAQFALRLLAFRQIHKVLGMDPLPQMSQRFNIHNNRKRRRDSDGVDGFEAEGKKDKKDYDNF
UniProt P61604: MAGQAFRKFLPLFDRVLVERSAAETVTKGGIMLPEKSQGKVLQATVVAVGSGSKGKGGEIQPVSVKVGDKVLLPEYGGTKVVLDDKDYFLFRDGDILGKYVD
UniProt Q8IZT6: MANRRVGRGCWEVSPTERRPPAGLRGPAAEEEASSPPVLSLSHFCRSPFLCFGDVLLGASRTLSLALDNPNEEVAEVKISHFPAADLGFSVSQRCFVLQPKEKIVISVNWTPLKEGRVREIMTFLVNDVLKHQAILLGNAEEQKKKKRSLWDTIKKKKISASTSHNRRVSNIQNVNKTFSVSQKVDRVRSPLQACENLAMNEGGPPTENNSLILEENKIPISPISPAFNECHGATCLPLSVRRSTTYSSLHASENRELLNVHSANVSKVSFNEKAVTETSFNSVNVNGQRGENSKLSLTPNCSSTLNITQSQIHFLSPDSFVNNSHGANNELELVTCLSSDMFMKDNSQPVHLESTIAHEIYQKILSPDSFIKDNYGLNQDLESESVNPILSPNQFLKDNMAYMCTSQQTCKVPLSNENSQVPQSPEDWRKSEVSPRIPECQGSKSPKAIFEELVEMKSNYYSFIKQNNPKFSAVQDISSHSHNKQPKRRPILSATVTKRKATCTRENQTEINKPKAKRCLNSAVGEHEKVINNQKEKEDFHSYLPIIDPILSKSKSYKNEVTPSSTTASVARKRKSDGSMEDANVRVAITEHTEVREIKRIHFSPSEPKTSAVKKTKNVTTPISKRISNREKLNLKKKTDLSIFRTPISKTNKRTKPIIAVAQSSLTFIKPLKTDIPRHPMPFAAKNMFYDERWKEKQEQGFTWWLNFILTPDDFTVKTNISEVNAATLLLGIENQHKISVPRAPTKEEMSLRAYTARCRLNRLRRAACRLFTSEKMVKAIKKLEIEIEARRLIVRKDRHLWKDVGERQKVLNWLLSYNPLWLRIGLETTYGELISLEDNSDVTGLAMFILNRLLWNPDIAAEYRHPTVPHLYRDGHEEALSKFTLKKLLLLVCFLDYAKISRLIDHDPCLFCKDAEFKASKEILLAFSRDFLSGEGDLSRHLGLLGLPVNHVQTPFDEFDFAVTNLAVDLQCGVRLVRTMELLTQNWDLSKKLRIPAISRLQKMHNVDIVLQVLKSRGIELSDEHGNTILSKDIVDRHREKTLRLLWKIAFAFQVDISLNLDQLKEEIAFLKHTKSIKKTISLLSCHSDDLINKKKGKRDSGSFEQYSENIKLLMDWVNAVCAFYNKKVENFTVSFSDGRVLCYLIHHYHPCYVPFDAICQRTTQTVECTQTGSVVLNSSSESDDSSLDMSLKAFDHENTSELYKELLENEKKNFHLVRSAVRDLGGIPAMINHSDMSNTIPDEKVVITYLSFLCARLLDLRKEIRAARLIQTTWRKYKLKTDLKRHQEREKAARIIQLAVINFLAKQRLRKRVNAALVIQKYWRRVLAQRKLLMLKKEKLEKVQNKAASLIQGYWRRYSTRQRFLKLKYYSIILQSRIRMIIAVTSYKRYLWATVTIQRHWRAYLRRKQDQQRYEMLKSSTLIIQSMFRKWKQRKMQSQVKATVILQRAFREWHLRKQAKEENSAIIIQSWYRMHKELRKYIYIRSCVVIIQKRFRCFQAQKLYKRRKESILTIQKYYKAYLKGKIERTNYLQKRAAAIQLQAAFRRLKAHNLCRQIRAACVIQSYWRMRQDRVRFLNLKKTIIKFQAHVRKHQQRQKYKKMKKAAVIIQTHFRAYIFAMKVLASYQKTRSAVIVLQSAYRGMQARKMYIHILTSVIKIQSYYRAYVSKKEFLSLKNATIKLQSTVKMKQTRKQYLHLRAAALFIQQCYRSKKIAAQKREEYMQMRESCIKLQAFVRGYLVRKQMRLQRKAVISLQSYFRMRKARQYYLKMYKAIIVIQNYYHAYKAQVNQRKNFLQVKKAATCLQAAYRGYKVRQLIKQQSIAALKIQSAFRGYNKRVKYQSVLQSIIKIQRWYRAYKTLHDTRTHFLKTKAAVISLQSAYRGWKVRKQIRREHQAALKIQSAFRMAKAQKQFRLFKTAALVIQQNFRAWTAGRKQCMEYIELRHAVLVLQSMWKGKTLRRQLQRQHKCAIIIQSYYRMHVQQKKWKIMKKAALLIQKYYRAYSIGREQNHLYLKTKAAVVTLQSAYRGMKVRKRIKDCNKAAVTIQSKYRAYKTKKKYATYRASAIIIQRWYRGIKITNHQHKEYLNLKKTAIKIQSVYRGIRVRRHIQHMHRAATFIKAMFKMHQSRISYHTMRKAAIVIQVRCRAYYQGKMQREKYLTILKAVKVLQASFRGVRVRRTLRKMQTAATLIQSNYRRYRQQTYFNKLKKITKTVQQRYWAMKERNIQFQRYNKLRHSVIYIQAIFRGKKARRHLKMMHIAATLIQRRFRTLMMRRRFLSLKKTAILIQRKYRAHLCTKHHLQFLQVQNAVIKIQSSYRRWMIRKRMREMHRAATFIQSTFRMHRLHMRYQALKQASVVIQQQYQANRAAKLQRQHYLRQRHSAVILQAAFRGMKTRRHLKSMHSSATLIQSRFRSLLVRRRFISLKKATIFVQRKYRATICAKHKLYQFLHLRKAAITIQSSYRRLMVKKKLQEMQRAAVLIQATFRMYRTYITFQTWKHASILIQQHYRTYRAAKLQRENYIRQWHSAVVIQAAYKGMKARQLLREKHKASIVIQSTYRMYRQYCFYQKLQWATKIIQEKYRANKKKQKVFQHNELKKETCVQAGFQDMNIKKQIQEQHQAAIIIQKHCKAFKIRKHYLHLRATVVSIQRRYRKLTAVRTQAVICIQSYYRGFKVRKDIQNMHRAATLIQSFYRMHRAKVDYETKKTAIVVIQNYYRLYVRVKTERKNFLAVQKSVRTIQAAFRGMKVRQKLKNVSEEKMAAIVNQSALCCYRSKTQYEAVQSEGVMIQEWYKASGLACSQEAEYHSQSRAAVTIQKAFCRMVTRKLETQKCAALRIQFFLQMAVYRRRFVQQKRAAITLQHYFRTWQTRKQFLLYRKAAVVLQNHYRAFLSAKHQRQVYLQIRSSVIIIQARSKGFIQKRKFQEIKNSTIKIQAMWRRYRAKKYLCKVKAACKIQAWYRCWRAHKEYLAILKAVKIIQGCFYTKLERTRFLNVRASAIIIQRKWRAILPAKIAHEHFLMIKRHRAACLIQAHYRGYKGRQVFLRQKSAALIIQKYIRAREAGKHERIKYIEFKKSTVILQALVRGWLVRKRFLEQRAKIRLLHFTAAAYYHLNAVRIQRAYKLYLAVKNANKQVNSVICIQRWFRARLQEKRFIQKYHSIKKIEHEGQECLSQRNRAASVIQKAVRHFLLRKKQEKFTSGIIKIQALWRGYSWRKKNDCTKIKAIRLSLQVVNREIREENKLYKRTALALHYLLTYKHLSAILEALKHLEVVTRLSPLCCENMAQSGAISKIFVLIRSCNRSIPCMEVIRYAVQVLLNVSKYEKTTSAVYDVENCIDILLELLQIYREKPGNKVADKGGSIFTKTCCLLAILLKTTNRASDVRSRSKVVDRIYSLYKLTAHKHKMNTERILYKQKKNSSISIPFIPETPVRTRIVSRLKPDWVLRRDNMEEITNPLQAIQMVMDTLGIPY

These molecules were tested against Ku70 ∆vWA-BioID2-HA (human) (UniProt P12956) (assay: proximity labelling; BioID2 in stable HEK293 lines, 50 μM biotin for 24 h, RIPA lysis, streptavidin Dynabeads, on-bead digestion, LC-ESI-MS/MS; three biological replicates; filtered against HEK293 and NLS-BioID2 controls).

Row | Molecule | binding
1 | Zinc finger RNA-binding protein (from UniProt Q96KR1 1-1074) | binds
2 | NF-kappa-B-repressing factor (protein, UniProt O15226 1-690) MEKILQMAEGIDIGEMPSYDLVLSKPSKGQKRHLSTCDGQNPPKKQAGSKFHARPRFEPVHFVASSSKDERQEDPYGPQTKEVNEQTHFASMPRDIYQDYTQDSFSIQDGNSQYCDSSGFILTKDQPVTANMYFDSGNPAPSTTSQQANSQSTPEPSPSQTFPESVVAEKQYFIEKLTATIWKNLSNPEMTSGSDKINYTYMLTRCIQACKTNPEYIYAPLKEIPPADIPKNKKLLTDGYACEVRCQNIYLTTGYAGSKNGSRDRATELAVKLLQKRIEVRVVRRKFKHTFGEDLVVCQIGMSSYEFPPALKPPEDLVVLGKDASGQPIFNASAKHWTNFVITENANDAIGILNNSASFNKMSIEYKYEMMPNRTWRCRVFLQDHCLAEGYGTKKTSKHAAADEALKILQKTQPTYPSVKSSQCHTGSSPRGSGKKKDIKDLVVYENSSNPVCTLNDTAQFNRMTVEYVYERMTGLRWKCKVILESEVIAEAVGVKKTVKYEAAGEAVKTLKKTQPTVINNLKKGAVEDVISRNEIQGRSAEEAYKQQIKEDNIGNQLLRKMGWTGGGLGKSGEGIREPISVKEQHKREGLGLDVERVNKIAKRDIEQIIRNYARSESHTDLTFSRELTNDERKQIHQIAQKYGLKSKSHGVGHDRYLVVGRKRRKEDLLDQLKQEGQVGHYELVMPQAN | binds

More lines, now with the values ahead:

Row | binding | Molecule
3 | binds | 10 kDa heat shock protein (from UniProt P61604 1-102)
4 | binds | Abnormal spindle-like microcephaly associated protein (from UniProt Q8IZT6 1-3477)
